Measurements reported in paper PMC10163288.
The other results are listed elsewhere or left out.

B1: il10ra_site1_sap_10_mot_HHH_b2_07521_000000141_0001_20_37_H_._HHH_b1_07784_0001_0000100002_0000001_0_0001_af2pred_0001 (protein)
chain: SSSSSSEIERVMELLERVAELLHKGNPEEAKEVLEEAKEIAEELGNLALRISIEFLEKIASSSSS
B2: il10ra_site1_sap_19_mot_HHH_b2_02497_000000141_0001_1_20_H_._HHH_b2_03821_0001_0000200019_0000001_0_0001_af2pred_0001 (protein)
chain: SSSSDDDERRLRLSLKFLKFLIEEGSERSAEILIRAIEDLAKKAKDEEVQKLVEELREELESSSS
B3: il10ra_site1_normal_mot_b26a303360aa2756ef5b79665ce52f45_0001_000000179_0001_1_11_H_._HHH_b2_02270_0001_0000100005_0000001_0_af2pred_0001 (protein)
chain: SSSSSSSEREEAFRILREAAHIDDEEEARELLEEAIELAEKANNPVLRRSAEFALRDKSSSSSSS
B4: il10ra_site1_sap_24_mot_HHH_b2_05323_000000159_0001_1_18_H_._HHH_b2_02704_af2_0001_0000200011_0000002_0_0001 (protein)
chain: SSSSTEELYRKVKEIIEEANELARRGNPEEVERILRELLEELEELNNEALLWAVRYALKINSSSS
B5: il10ra_site1_sap_12_mot_ems_3hM_3349_000000016_0001_25_42_H_._b4be136d7f8a4bb058aae31a77d31857_0001_0001_0000300014_0000001_0_0001_af2pred_dldesign_0_af2pred (protein)
chain: SSSSDLDKRAWDLSVELYKLGREEELLRLAQLRTQYHLTGDPRLREELEALLDEIEAELKSSSSS
B6: il10ra_site1_normal_mot_HHH_b2_06090_af2_000000001_0001_1_19_H_._HHH_b1_04907_af2_0001_0000300025_0000001_0 (protein)
chain: SSSSDERQRVLRLLVEILRLILRGDHEEARELLEEVERLAEELGDEALRKAVEIYEEALKSSSSS
B7: il10ra_site1_sap_23_mot_HHH_b1_08411_af2_000000053_0001_1_20_H_._HHH_b1_02517_0001_0000100005_0000002_0_0001 (protein)
chain: SSSSSDADEVFRRVEELLRRVMHIEDEEEAEKLLEEAKELAEEAGNQLLKWAIEYVAKVHSSSSS
B8: il10ra_site1_sap_20_mot_HHH_b1_03230_000000248_0001_1_19_H_._HHH_b2_06429_af2_0001_0000500013_0000001_0_0001 (protein)
chain: SSSSDEEEELVEAAIRLAKQLLEWGNPEAARLIIEAAEMLVEELGNEELQEKLEEVREELNSSSS
B9: il10ra_site1_sap_24_mot_HHH_b1_03262_af2_000000181_0001_43_57_H_._HHH_b2_01829_0001_0000300024_0000001_0_0001 (protein)
chain: SSSSSSEEEEEVEELLEEAKQIPDPRERIEVLLRAVRIAIQGQNPELLRLVWRVIKELGKSSSSS
B10: il10ra_site1_normal_mot_HHH_b1_06912_af2_000000235_0001_1_15_H_._HHH_b2_00723_af2_0001_0000300016_0000001_0 (protein)
chain: SSSSSEADRVYKLIRRVLELLYNGDDEEAEELLREAEELVEEANNFVFKFALRVLRERLEESSSS
B11: il10ra_site1_sap_27_mot_9c3e5e2d2b9ffb70dc788f52fbfab6d5_0001_1_000000198_0001_1_14_H_._05ca327611f5605f0dd8494b449afcbf_0001_1_af2_0001_0000500019_0000003_0_00 … (protein)
chain: SSSSSEELYRLSRKAMELLREGDKEEAREVVEKAEELAEEENSPVFLMNIRFVLEDIERTSSSSS
B12: il10ra_site1_sap_29_mot_86ab9fa9a2f9995d0bea9dc24d8c997f_0001_1_af2_000000014_0001_16_33_H_._66c2fca85847babee3b8944584cfd08f_0001_1_0001_0000600028_0000001_0_0 … (protein)
chain: SSSSSHAEEIVRITLEMAEEAKEEGDEQLFRALLWFARIAAEERNDPEAERLVEEFEEEFSSSSS
B13: il10ra_site1_sap_25_mot_HHH_b1_01513_af2_000000021_0001_1_16_H_._HHH_b2_07812_af2_0001_0000500006_0000001_0_0001_af2pred_0001 (protein)
chain: SSSSDEEAREYHREIQELMEKGNPEKAAKLLLELSKLAMRKGDEEMVRLVHELVRLLLELNSSSS
B14: il10ra_site1_normal_mot_HHH_b2_06497_000000202_0001_1_20_H_._HHH_b2_00092_af2_0001_0000800020_0000001_0_af2pred_0001 (protein)
chain: SSSSSDRARLSTRVYELLRKALRIDDEEEVEELLKEAEELARELGNRILEHAIEAAKRALSSSSS
B15: il10ra_site1_sap_23_mot_HHH_b1_03754_af2_000000016_0001_40_56_H_._HHH_b2_04696_0001_0000300035_0000001_0_0001 (protein)
chain: SSSSSEEIQQVLRLSLEAFRLALRGNPEEARKLLEEAEELAEEANDPRMLRVIRDLLRALSSSSS
B16: il10ra_site1_normal_mot_HHH_b1_05357_000000034_0001_23_39_H_._HHH_b2_02364_0002_0000100005_0000001_0 (protein)
chain: SSSSSDEEDREEVERLLEEAKHIEDRQRVSHLMIQAYAVAHNANDPELEELVREVAKELVSSSSS
B17: il10ra_site1_sap_13_mot_HHH_b2_02116_af2_000000165_0001_41_55_H_._HHH_b1_01304_0001_0000300021_0000001_0_0001 (protein)
chain: SSSSDREELLEEAWRLLREALELAQTDPEEAREVAEEAEEIAKEANSWAILISIRFFLKDLSSSS
B18: il10ra_site1_sap_12_mot_HHH_b1_05357_000000034_0001_23_39_H_._HHH_b1_01533_af2_0001_0000200008_0000002_0_0001_af2pred_dldesign_0_af2pred (protein)
chain: SSSSSELEAFLERKLAALEQLAAMGEKEEFEKLANYIKAVAKALNNPEVIARVDEIEAKLKSSSS
B19: il10ra_site1_normal_mot_HHH_b1_05021_af2_000000076_0001_42_56_H_._HHH_b2_06583_af2_0001_0000600010_0000001_0_af2pred_dldesign_0_af2pred (protein)
chain: SSSSSSAELTEKAIELLREASELEDKEKRKELLAKAKELAEKAKNELLLEAIAYLESQLSSSSSS
B20: il10ra_site1_sap_31_mot_HHH_b1_05860_000000142_0001_1_19_H_._HHH_b1_04567_af2_0001_0000500066_0000002_0_0001_af2pred_0001 (protein)
chain: NLIERVRELAKKADDPKLLKLLLLLVHAIFRGDEELVERVLELLEQAREEGDPRYLEEAEELLRK
B21: il10ra_site1_normal_mot_HHH_b1_02080_af2_000000254_0001_23_39_H_._HHH_b1_03859_0001_0000500007_0000001_0 (protein)
chain: SSSSDQEILEEASRLYLRASEAIEKGDEELLEKLLEELEELAEELNDPRIRLTLQFLKAIGSSSS
B22: il10ra_site1_normal_mot_HHH_b1_01886_000000262_0001_1_18_H_._HHH_b2_02763_0001_0000400033_0000001_1 (protein)
chain: SSSSTLEWSVEFVLRAAEILAKRGDPEHAKELLRRLLEHLEEAGNEELLEEVEELLRELGSSSSS
B23: il10ra_site1_normal_mot_HHH_b2_06786_000000018_0001_41_57_H_._HHH_b1_07352_af2_0001_0000200014_0000001_0 (protein)
chain: SSSSNDVARIVAEAVRLAFRLSDEETLQELWKLFKEYIKEGDERYKERLEELLEELEELLSSSSS
B24: il10ra_site1_normal_mot_HHH_b2_07579_000000275_0001_1_19_H_._HHH_b1_07685_af2_0001_0000300033_0000001_0 (protein)
chain: SSSSSEEVMELIREAAELLRNGNPEKAREVAEEAERIAEELGNFVLRFSVRHLLEDIENQSSSSS
B25: il10ra_site1_sap_20_mot_HHH_b2_04275_000000272_0001_20_36_H_._HHH_b1_03183_0001_0000200025_0000001_0_0001 (protein)
chain: SSSSDIEEEVEELLEEARHIPDEHEVAQLLFEAMRLAWENNDPELVMKVVQFAAEMLNERSSSSS
B26: il10ra_site1_sap_23_mot_HHH_b2_02463_af2_000000222_0001_1_19_H_._HHH_b1_06062_af2_0001_0000400023_0000001_0_0001 (protein)
chain: SSSSDEEYIRLALKFAKWLLEAGDPEAAKHILRAAADVARKAGNEEALEELEKLLKEVEEKSSSS
B27: il10ra_site1_sap_29_mot_HHH_b1_00992_000000182_0001_23_40_H_._ad6cd7d0a18b703aa9959b16ef12cf47_0001_1_0001_0000300017_0000001_0_0001 (protein)
chain: SSSSDEAYRLAEEFIEEILRLLHEGDREEAERLAEELLELLRELGDMNVTRNVEHLLKLVRSSSS
B28: il10ra_site1_normal_mot_HHH_b1_04015_af2_000000074_0001_1_17_H_._HHH_b1_03391_0001_0000200010_0000001_0 (protein)
chain: SSSSSEYEFAKERIERAAQLLQNGNPEEAKRVLEELEEFLEERNNEVTLWSVRHLLRLIEESSSS
B29: il10ra_site1_sap_19_mot_HHH_b1_06914_000000280_0001_1_18_H_._HHH_b2_00575_af2_0001_0000400020_0000001_0_0001_af2pred_0001 (protein)
chain: SSSSSRKAKIALEAAELAIRYALEQGDEHLAEAVFRVFAQLLRALGDEEAEEQLEELFERLSSSS
B30: il10ra_site1_sap_19_mot_HHH_b2_02463_af2_000000222_0001_1_19_H_._HHH_b1_00181_0001_0000200021_0000002_0_0001 (protein)
chain: SSSSSQMEELLEAARKFLEQALRLGNEEIARSAAMALRVAAEIAGDEEAKEYVEEVEKRLSSSSS
B31: il10ra_site1_sap_27_mot_HHH_b2_02053_af2_000000006_0001_3_19_H_._HHH_b1_06258_0001_0000700052_0000001_0_0001 (protein)
chain: SSSSSSEEEREVEELLEEAEQIPDPKERSEVLAEALKVAYEGQNPELVRLVWEVVEKLFSSSSSS
B32: il10ra_site1_normal_mot_HHH_b1_00814_af2_000000078_0001_43_57_H_._HHH_b2_04659_0001_0000100001_0000001_0_af2pred_0001 (protein)
chain: SSSSSSDIEEEIEELLEEAKHVDPHERLRLLREAFELALELGDPELERLVVEVAARLISSSSSSS
B33: il10ra_site1_sap_7_mot_HHH_b1_02648_000000074_0001_1_19_H_._HHH_b1_06690_0001_0000300022_0000001_0_0001 (protein)
chain: SSSSSETQRIAELIREAMELAREGDEEKVEEVLEEAERLAEENNNRLFLIQVRFLAKLENSSSSS
B34: il10ra_site1_sap_15_mot_HHH_b2_04013_af2_000000040_0001_22_39_H_._HHH_b2_06082_0001_0000200012_0000002_0_0001 (protein)
chain: SSSSSSDIEEEVEKLLEEAKRIDDPARRSHVLIQAYALADQNNNEELKELVREVLQELVSSSSSS
B35: il10ra_site1_sap_19_mot_HHH_b2_00033_000000036_0001_41_54_H_._HHH_b2_01402_0001_0000100011_0000002_0_0001_af2pred_0001 (protein)
chain: SSSSDERARRAAELSIKFAKHLAEAGDEEAARFILEAAAEILKKNNDEELLKELEELLEELSSSS
B36: il10ra_site1_sap_19_mot_HHH_b1_00103_000000293_0001_1_15_H_._HHH_b1_02295_0001_0000200008_0000001_0_0001 (protein)
chain: SSSSDEAYEIAKEAIERALEAWRRGNPEEAREIIEEAIELLEELNNPAAAFALRVVLEALRSSSS
B37: il10ra_site1_sap_23_mot_3c6ad1a4bc7d4f5cf55cee527202d42a_0001_000000108_0001_32_49_H_._HHH_b1_03537_af2_0001_0000800021_0000001_0_0001 (protein)
chain: SSSSSTLEWSVRFVIEVAEHLFELGDPERARELLEAILRQVERAGDEELLELLERVLEELSSSSS

What follows are binders tested against il10ra, Q13651 (assay: yeast display titration).

Apparent Kd, inactive:
B1 no binding seen, B2 no binding seen, B3 no binding seen, B4 no binding seen, B5 no binding seen, B6 no binding seen, B7 no binding seen, B8 no binding seen, B9 no binding seen, B10 no binding seen, B11 no binding seen, B12 no binding seen, B13 no binding seen, B14 no binding seen, B15 no binding seen, B16 no binding seen, B17 no binding seen, B18 no binding seen, B19 no binding seen, B20 no binding seen, B21 no binding seen, B22 no binding seen, B23 no binding seen, B24 no binding seen, B25 no binding seen, B26 no binding seen, B27 no binding seen, B28 no binding seen, B29 no binding seen, B30 no binding seen, B31 no binding seen, B32 no binding seen, B33 no binding seen, B34 no binding seen, B35 no binding seen, B36 no binding seen, B37 no binding seen
